Taken from: PubChem BioAssay AID686943 (Drosophila RNAi Screening Center, 2013)
Test: 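Fly genes whose loss alters ERK activation after insulin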 (primary screen). System: Drosophila S2R+ haemocyte-like cells expressing YFP-tagged ERK (Rolled). Reagents: long dsRNA against Drosophila genes. Challenge: insulin stimulation versus unstimulated cells; dose and duration not given. Measurement: 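Per-plate z-scores of phospho-ERK immunostaining normalised to YFP-tagged ERK, measured with and without insulin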. Scale: replicate 1, z-score of dpERK with insulin and replicate 2, z-score of dpERK with insulin: higher = more active ERK per ERK-YFP after insulin.
The screen tested about 23,000 reagents; below is a random part of those that have a named target and a result. 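Extra replicates exist only for a retested subset of genes; insulin dose and duration not given; both raised and lowered dpERK matter.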 Names joined by + are all predicted targets of the reagent. Further read-outs or replicates are left out here. Reagent sequences are not shown. Not stated in the record: the amount of reagent, the time to read-out.

Knock-down of CG42449 (GeneID 31486) [DRSC18084] gave: replicate 1, z-score of dpERK with insulin 0.65; replicate 2, z-score of dpERK with insulin -0.09. With knock-down of CG15550 (GeneID 43666) [DRSC15088], the record shows replicate 1, z-score of dpERK with insulin 0.16; replicate 2, z-score of dpERK with insulin -0.05. Knock-down of row (GeneID 36685) [DRSC07076] gave: replicate 1, z-score of dpERK with insulin -1.15; replicate 2, z-score of dpERK with insulin -0.64. row (GeneID 36685) [DRSC07077] gave replicate 1, z-score of dpERK with insulin -0.21; replicate 2, z-score of dpERK with insulin -0.75. Polr2I (GeneID 41741) [DRSC16832] scored replicate 1, z-score of dpERK with insulin 1.54; replicate 2, z-score of dpERK with insulin 1.35. For CG42518 + MED9 [DRSC06917], the values are replicate 1, z-score of dpERK with insulin 2.09; replicate 2, z-score of dpERK with insulin 0.83.

After knock-down of CG13135 (GeneID 34345) [DRSC02232] the results were replicate 1, z-score of dpERK with insulin 0.41; replicate 2, z-score of dpERK with insulin 0.65. Depletion of CG31787 (GeneID 318941) [DRSC01632] gave: replicate 1, z-score of dpERK with insulin 0.51; replicate 2, z-score of dpERK with insulin -0.46. With knock-down of CG32354 (GeneID 50302) [DRSC10763] the results were replicate 1, z-score of dpERK with insulin -0.36; replicate 2, z-score of dpERK with insulin -2.08. Silencing of CG32354 (GeneID 50302) [DRSC10775] gave: replicate 1, z-score of dpERK with insulin 1.57; replicate 2, z-score of dpERK with insulin -1.27. Depletion of CG32354 (GeneID 50302) [DRSC21919] came out at: replicate 1, z-score of dpERK with insulin -0.39; replicate 2, z-score of dpERK with insulin 0.9. CG9624 (GeneID 41730) [DRSC16523] scored replicate 1, z-score of dpERK with insulin 0.36; replicate 2, z-score of dpERK with insulin -1.65.

Ordered by “replicate 2, z-score of dpERK with insulin” (high to low): some entries from above
CG15550 (GeneID 43666) [DRSC15088] — replicate 1, z-score of dpERK with insulin = 0.16; replicate 2, z-score of dpERK with insulin = -0.05
CG42449 (GeneID 31486) [DRSC18084] — replicate 1, z-score of dpERK with insulin = 0.65; replicate 2, z-score of dpERK with insulin = -0.09
